The M2OR odorant receptor database
Positions count from the first letter of the chain named. Only a part is listed here, and it is no random draw. Calls are pooled over several reports, among them a noisy single-well screen. Some of the results follow.

Chains of the proteins cited; added tags and fusions are not shown. Chains listed by the source or under a name are the forms on record and can include a tag or linker.
OR1E2, as listed by the source: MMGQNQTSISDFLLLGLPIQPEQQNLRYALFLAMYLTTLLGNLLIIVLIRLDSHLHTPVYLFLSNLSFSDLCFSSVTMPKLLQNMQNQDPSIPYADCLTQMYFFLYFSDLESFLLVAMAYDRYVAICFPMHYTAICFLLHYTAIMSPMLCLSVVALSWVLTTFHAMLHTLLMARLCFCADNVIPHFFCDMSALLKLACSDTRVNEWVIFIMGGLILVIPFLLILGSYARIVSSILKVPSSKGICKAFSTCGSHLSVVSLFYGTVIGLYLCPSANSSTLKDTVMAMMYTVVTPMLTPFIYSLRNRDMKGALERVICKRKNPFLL

How the values were obtained:
Conditions in all cases: stereoisomer not certain
[1] = target: T1, OR1C1 (Homo sapiens) (UniProt Q15619)
T1 sequence (whole entry): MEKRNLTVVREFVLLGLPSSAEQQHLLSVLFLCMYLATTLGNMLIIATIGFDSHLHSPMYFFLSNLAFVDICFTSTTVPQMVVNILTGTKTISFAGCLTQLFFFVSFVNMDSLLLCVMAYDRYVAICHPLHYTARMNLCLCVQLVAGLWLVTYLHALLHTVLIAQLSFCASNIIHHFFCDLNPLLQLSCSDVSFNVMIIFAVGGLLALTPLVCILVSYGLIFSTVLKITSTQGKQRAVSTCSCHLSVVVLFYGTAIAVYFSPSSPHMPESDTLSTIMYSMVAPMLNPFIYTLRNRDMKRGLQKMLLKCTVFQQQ
Summary of the method: (§1)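 Whether a receptor–molecule pair is responsive (active) rests on the original authors' judgment that its measured signal was statistically different from baseline. Pairs without that judgment are non-responsive (inactive). Sources used varied assay methods, commonly transient luciferase assays in mammalian cell lines.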

[2] = target: T2, OR1D2 (Homo sapiens) (UniProt P34982)
T2 sequence (whole entry): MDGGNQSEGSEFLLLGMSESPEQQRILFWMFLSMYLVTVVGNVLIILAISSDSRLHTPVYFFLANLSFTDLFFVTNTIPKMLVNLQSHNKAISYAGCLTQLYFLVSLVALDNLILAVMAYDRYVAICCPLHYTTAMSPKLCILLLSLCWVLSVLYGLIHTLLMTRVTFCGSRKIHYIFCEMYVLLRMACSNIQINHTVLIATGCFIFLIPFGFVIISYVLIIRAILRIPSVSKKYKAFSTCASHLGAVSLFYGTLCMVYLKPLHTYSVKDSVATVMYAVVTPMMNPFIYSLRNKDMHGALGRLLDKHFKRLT
Summary of the method: as §1

[3] = target: T3, OR1D5 (Homo sapiens) (UniProt P58170)
T3 sequence (whole entry): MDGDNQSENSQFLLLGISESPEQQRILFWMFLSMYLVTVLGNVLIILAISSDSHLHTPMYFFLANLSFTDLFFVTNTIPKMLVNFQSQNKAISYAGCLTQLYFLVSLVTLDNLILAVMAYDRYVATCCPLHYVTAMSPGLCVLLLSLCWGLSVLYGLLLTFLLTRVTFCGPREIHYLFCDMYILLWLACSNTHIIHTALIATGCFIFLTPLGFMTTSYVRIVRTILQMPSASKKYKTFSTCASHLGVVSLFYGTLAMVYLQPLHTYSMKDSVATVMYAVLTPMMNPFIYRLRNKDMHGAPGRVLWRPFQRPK
Summary of the method: as §1

[4] = test system: T4, OR1D5
T4 sequence (whole entry): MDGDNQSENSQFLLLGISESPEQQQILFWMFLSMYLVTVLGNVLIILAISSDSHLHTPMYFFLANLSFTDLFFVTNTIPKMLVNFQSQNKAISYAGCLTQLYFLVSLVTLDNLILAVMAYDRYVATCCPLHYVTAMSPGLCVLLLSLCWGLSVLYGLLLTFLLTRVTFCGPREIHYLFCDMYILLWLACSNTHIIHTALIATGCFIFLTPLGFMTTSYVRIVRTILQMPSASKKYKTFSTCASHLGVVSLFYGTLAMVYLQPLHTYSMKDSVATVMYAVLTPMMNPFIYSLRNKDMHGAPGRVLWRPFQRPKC
Summary of the method: as §1

[5] = test system: T5, OR1E1
T5 sequence (whole entry): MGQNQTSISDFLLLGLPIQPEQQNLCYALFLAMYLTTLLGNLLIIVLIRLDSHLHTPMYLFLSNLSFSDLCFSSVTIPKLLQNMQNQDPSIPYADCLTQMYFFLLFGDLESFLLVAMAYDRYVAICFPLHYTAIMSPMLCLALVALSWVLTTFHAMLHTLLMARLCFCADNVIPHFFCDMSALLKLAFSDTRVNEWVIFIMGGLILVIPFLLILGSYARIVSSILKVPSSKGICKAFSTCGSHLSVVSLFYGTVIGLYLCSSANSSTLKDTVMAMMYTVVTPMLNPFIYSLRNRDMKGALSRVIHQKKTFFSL
Summary of the method: as §1

[6] = test system: T6, OR1E1; remark: listed apart in the source
T6 sequence (whole entry): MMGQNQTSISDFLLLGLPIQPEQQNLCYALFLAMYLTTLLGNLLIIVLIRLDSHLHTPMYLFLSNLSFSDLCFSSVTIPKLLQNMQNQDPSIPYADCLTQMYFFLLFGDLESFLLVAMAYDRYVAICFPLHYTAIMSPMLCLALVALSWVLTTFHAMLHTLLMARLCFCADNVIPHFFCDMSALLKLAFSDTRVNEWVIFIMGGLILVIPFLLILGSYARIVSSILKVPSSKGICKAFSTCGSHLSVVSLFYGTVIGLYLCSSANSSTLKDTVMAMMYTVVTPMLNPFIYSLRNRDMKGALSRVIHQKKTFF
Summary of the method: as §1

[7] = target: T7, OR1E2 (Homo sapiens) (UniProt P47887)
T7 sequence (whole entry): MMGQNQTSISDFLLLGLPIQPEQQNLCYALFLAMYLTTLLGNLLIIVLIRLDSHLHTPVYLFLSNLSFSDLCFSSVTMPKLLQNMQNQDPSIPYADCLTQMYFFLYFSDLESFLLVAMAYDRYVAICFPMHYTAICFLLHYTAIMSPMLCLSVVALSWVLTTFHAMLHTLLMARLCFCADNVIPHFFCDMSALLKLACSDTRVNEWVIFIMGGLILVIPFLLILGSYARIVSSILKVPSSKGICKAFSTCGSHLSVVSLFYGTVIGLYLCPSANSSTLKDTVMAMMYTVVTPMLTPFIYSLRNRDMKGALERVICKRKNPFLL
Summary of the method: as §1

[8] = test system: T8, OR1E2
T8 sequence (whole entry): T7 sequence (whole entry) with C27R
Summary of the method: as §1

[9] = test system: T9, OR1F1
T9 sequence (whole entry): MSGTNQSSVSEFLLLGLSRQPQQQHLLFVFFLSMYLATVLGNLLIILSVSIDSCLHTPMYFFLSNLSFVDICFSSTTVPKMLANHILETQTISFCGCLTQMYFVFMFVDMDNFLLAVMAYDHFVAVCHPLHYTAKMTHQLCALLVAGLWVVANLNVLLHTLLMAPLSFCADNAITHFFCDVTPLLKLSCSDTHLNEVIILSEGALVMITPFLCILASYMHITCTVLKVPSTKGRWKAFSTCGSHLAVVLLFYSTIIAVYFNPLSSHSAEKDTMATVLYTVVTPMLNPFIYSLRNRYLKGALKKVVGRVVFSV
Summary of the method: as §1

[10] = test system: T10, OR1FC
T10 sequence (whole entry): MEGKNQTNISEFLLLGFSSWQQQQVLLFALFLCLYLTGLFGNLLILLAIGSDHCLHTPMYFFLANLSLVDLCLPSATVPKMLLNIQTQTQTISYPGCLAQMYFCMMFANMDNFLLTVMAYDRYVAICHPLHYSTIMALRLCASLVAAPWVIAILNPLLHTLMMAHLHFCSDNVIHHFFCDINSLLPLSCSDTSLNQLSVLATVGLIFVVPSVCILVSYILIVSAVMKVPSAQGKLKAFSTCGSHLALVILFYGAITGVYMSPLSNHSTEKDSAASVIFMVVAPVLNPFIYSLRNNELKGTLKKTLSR
Summary of the method: as §1

Measured: odorant receptor agonist call;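 further: active if original authors judged signal statistically different from baseline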

CCC(C)=O
inactive: all assays above

CCCCOC(C)=O
inactive: all assays above

CS
inactive: all assays above
